Results on 1 substance are retold here after publication PMC8943175.

Protein sequences, listed by entry. Tags and fused reporters are not part of them.
UniProt Q8CFE3: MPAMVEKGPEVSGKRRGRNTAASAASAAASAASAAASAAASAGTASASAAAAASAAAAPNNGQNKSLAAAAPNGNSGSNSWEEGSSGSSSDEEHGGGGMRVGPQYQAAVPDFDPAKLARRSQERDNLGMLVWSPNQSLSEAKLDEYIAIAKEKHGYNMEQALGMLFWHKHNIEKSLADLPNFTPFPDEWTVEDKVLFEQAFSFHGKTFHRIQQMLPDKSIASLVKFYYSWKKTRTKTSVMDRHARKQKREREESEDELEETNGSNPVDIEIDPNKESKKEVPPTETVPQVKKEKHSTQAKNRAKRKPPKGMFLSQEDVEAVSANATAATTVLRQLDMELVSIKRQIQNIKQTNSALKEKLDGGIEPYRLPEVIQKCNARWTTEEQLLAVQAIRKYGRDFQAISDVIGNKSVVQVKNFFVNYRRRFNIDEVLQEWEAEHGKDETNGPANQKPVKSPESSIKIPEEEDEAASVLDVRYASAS
UniProt Q61188: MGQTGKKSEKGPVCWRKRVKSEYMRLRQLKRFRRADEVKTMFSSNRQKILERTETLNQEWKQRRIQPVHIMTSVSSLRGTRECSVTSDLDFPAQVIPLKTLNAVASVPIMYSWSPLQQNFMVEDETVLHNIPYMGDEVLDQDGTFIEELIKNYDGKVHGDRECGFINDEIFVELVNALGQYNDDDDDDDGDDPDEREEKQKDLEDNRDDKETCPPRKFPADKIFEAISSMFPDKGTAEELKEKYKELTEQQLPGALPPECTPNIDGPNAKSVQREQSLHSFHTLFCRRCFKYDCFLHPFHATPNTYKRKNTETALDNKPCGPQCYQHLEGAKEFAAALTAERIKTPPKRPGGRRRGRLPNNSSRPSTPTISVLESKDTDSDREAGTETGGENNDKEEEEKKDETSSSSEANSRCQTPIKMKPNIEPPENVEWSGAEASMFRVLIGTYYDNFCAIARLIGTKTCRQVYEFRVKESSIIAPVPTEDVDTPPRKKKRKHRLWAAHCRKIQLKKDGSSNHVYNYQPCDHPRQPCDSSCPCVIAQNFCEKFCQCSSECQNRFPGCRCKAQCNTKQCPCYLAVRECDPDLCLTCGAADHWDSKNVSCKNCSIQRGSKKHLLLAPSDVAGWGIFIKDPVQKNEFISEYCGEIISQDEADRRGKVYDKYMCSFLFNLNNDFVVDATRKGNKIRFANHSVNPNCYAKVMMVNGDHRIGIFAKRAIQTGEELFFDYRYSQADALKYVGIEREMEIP

The target of this assay is REST Corepressor 1 (RCOR1/CoREST1), endogenous in HT22 cells (mouse (endogenous in HT22)) (UniProt Q8CFE3). The assay can be described thus: co-IP; endogenous proteins from HT22 whole-cell (native) extracts; lysis in 20 mM Tris-HCl pH 7.5, 150 mM NaCl, 1 mM EDTA, 1 mM EGTA, 1% NP40 with sonication; 1-2 ug antibody to the bait per 700 ug protein on Protein A magnetic beads, 12 h; blots of the precipitate; in some panels cells treated 1 h with THZ1, Flavopiridol, Cordycepin or Actinomycin D, or with ….

Results are given in words; binding and its absence hold for the method and conditions named. In cells and extracts the contact can be indirect.

Turning to “EZH2, endogenous in HT22 cells (from UniProt Q61188 1-746)”, the binding result is “no binding”.
